Data published in PubChem BioAssay AID2517 (National Center for Advancing Translational Sciences (NCATS), 2010).
In all, about 350,000 compounds went through this assay and about 1,200 (0.34%) were called active. Inconclusive results, whose numbers are uncertain, are shown with a selection of clear calls. Calls come from the whole dose curve; as a rule, active = well fitted inhibition curve with a large enough effect; inconclusive = small, poorly fitted or top-dose-only effect; inactive = no such curve, though single readings can be large or run the other way. Potencies beside an inconclusive call are fits to weak or partial responses and may not hold up.

By UniProt entry, the sequences of proteins in these tests, tags left out.
UniProt P27695, whole entry, looked up: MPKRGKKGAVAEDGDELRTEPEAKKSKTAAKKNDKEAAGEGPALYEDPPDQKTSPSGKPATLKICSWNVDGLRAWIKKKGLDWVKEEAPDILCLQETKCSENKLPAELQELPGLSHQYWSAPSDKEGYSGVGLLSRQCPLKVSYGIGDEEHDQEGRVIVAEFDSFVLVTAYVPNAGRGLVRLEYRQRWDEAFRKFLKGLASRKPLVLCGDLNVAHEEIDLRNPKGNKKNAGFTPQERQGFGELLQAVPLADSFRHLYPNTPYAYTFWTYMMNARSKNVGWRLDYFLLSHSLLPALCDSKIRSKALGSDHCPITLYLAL

biological target: DNA repair nuclease/redox regulator APEX1 (Homo sapiens) (UniProt P27695); test: qHTS Assay for Inhibitors of the Human Apurinic/apyrimidinic Endonuclease 1 (APE1); details: recombinant APE1, TAMRA/BHQ-2 abasic DNA cleavage fluorescence; series mostly up to 65.8 µM; note: nearly all actives have a fitted effect of over 55% in size
Method in brief: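 Enzyme (0.75 nM final) and test compound are incubated 15 min at room temperature before adding 50 nM quenched THF abasic-site duplex. Cleavage dequenches TAMRA, followed at 525/598 nm over three reads one minute apart.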
Potency is the fitted concentration of half-maximal effect.

| Compound | Potency |
| --- | --- |
| COCCN1CCc2[nH]c(=S)[nH]c(=O)c2C1 | inactive |
| C=CCN(c1ccc(Cl)cc1)S(=O)(=O)c1cccc(C(=O)OCC(=O)N(C)C)c1 | inconclusive: 28.2 µM [inhibitor, single point] |
| O=C(NCCc1ccccc1)c1ccc2nc(-c3ccco3)c(-c3ccco3)nc2c1 | inconclusive: 12.6 µM [inhibitor, partial curve] |
| O=C(N/N=C/c1cc(O)ccc1Br)c1cccnc1 | inactive |
| O=C(CSc1nccc(=O)[nH]1)Nc1ccc(F)c([N+](=O)[O-])c1 | inconclusive: 2 µM [inhibitor, full curve, poor fit] |
| Cc1ccc(C(=O)Nc2cccc(C(F)(F)F)c2)cc1Nc1ccccn1 | active: 35.5 µM |
| CNS(=O)(=O)c1cccc(C(=O)OCC(=O)c2ccc3c(c2)OCCO3)c1 | inconclusive: 16.8 µM [inhibitor, single point] |
| COC(c1ccccc1)c1nnc(CCC(=O)N2CCN(C3CCCC3)CC2)o1 (centres undefined) | inconclusive: 37.7 µM [inhibitor, single point] |
| Cc1ccc(O)c(-c2cc(C(=O)Nc3ccc(S(=O)(=O)N4CC(C)OC(C)C4)cc3)[nH]n2)c1 (centres undefined) | inconclusive: 15.8 µM [inhibitor, partial curve] |
| Nc1c(C(=O)NCc2cccs2)nnn1CC(=O)Nc1cccc(Cl)c1 | inconclusive: 44.7 µM [inhibitor, single point] |
| CCOc1ccc(NC(=O)c2ccccn2)cc1 | inconclusive: 5.62 µM [inhibitor, full curve, poor fit] |
| Cc1ccc(S(=O)(=O)NC(CC(=O)N2CCc3ccccc32)c2ccco2)cc1 (centres undefined) | inconclusive: 0.0045 µM [inhibitor, full curve, poor fit] |
| COc1ccccc1Cn1c(=O)c2ccccc2n2c(SCC(=O)N3CCCCC3)nnc12 | inactive |
| CC(=O)NS(=O)(=O)c1ccc(NC(=O)c2cc3c(=O)n4ccccc4nc3s2)cc1 | inactive |
| CC(C)C(=O)NC(=S)Nc1sc2c(c1C(N)=O)CCCC2 | inactive |
| Brc1ccc(OCc2nc(-c3ccccn3)n[nH]2)cc1 | inconclusive: 44.7 µM [inhibitor, single point] |
| CN(C)/N=C/c1cc([N+](=O)[O-])ccc1O | inconclusive: 28.2 µM [inhibitor, partial curve] |
| COc1ccc(C2Nc3cccc4cccc(c34)N2)cc1Br | inactive |
| COc1ccc(C(CCN2CCCC(C)C2)c2c(OC)cc(OC)c3c(-c4ccccc4)cc(=O)oc23)cc1 (centres undefined) | inconclusive: 35.5 µM [inhibitor, single point] |
| CN(c1ccccc1C(=O)NCc1ccco1)S(C)(=O)=O | inconclusive: 44.7 µM [inhibitor, single point] |
| COc1ccc(C(=O)N2CCN(S(=O)(=O)c3ccc(C)cc3C)CC2)cc1OC | inconclusive: 5.62 µM [inhibitor, single point] |
| CN(c1ccccc1)c1nc(N)c([N+](=O)[O-])c(NCc2ccccc2)n1 | inconclusive: 0.0794 µM [inhibitor, partial curve, poor fit] |

Rewritten field by field: part of the list above.
COCCN1CCc2[nH]c(=S)[nH]c(=O)c2C1
  Potency: inactive
C=CCN(c1ccc(Cl)cc1)S(=O)(=O)c1cccc(C(=O)OCC(=O)N(C)C)c1
  Potency: inconclusive: 28.2 µM [inhibitor, single point]

Next results follow:

| Compound | Potency |
| --- | --- |
| CCN(CC)C(=O)N1CCN(C(=O)N(CC)CC)CC1 | inactive |
| CC(=O)Nc1ccc(S(=O)(=O)Nc2nc3ccccc3nc2-n2ccc(=NC(=O)c3ccc(F)cc3)cc2)cc1 | inconclusive: 0.0224 µM [inhibitor, full curve, poor fit] |
| O=c1c(-c2ccc(O)cc2O)coc2cc(O)cc(O)c12 | inconclusive: 25.1 µM [inhibitor, partial curve] |
| Cc1ccc(NC(=S)NCC2CCCO2)cc1C (centres undefined) | inconclusive: 8.91 µM [inhibitor, single point] |
| CCCCN(C(=O)c1cccc(S(=O)(=O)N2CCCC2)c1)c1c(N)n(CCC)c(=O)[nH]c1=O | inactive |
| CS(=O)(=O)N(CC(=O)Nc1ccccc1C(=O)N1CCCC1)c1cccc([N+](=O)[O-])c1 | inconclusive: 39.8 µM [inhibitor, single point] |
| Cc1ccc(C(=O)NCCCc2ccccc2)c(C)c1 | inconclusive: 0.0891 µM [inhibitor, full curve, poor fit] |
| O=C(O)C1Cc2ccccc2CN1C(=O)COc1ccc(Cl)cc1Cl (centres undefined) | inconclusive: 0.005 µM [inhibitor, full curve, poor fit] |
| O=C(c1ccccc1)c1ccc2nc(-c3ccco3)c(-c3ccco3)nc2c1 | inconclusive: 31.6 µM [inhibitor, partial curve] |
| COc1cc(CC(=O)OCC(=O)NCc2ccco2)cc(OC)c1OC | inactive |
| C=CCN1C(=O)c2cccc3c(N4CCCCC4)ccc(c23)C1=O | inconclusive: 2 µM [inhibitor, partial curve] |
| CC(=O)OCC(=O)NCC(=O)c1c[nH]c2ccccc12 | inconclusive: 0.282 µM [inhibitor, partial curve] |
| O=C(COC(=O)c1ccccc1Br)NCc1ccccc1 | inconclusive: 12.6 µM [inhibitor, partial curve, poor fit] |
| CCNC(=S)Nc1ccc(-c2nc3ccccc3[nH]2)cc1 | inconclusive: 44.7 µM [inhibitor, single point] |
| O=C1/C(=C/c2ccc(O)c(O)c2)Oc2ccccc21 | inconclusive: 25.1 µM [inhibitor, partial curve, poor fit] |
| Nc1ccc(-c2nc3ccc(N)cc3[nH]2)cc1 | inconclusive: 28.2 µM [inhibitor, partial curve] |
| O=C(COC(=O)CCCOc1ccc(Cl)cc1Cl)NCc1ccccc1 | inconclusive: 20 µM [inhibitor, single point] |
| O=C(CNc1ccc(F)cc1)c1ccccc1 | inconclusive: 44.7 µM [inhibitor, single point] |
| C=CCn1c(=O)[nH]c2nc3cc(N=CN(C)C)c(C)cc3nc2c1=O | inactive |
| O=C(O)C1Nc2c(cccc2C(F)(F)F)C2C=CCC12 (centres undefined) | active: 16.8 µM |
| CCC(C)c1cc([N+](=O)[O-])cc([N+](=O)[O-])c1OC(=O)OC(C)C (centres undefined) | inactive |
| O=C(NN1CCN(Cc2ccccc2Cl)CC1)c1ccc(Br)cc1 | inconclusive: 20 µM [inhibitor, single point] |
